# Source: article PMC12431657, “Discovery and mechanistic insights of dibenzoylmethane as a broad spectrum inhibitor of coronavirus” (PLOS Pathogens, 2025)
# Counter-ions that a name gives are not always drawn. The whole screen tested about 3,300 compounds, of which about 60 (2%) showed an effect of 50% or more. This is one part of the list.
# System: HCoV-OC43
# Parameters: species or system RD; HTS, protection from HCoV-OC43 induced cell death, luminescent cell viability (CellCounting-Lite 2.0), inhibition rate
# Details: 24 h, 10 µM; inhibitor
row,SMILES,OC43 Inhibition rate
1,CN1[C@@H]2CC[C@H]1CC(O)C2 (some centres unmarked) [Tropine],-1.9%
2,COC(=O)[C@]12OC[C@]34[C@H]([C@@H](O)[C@@H]1O)[C@@]1(C)CC(=O)C(O)=C(C)[C@@H]1C[C@H]3OC(=O)[C@H](OC(=O)/C=C(\C)C(C)(C)OC(C)=O)[C@@H]24 [Bruceantinol],-6%
3,O=C1C=CC(=O)c2c(O)ccc(O)c21 [Naphthazarin],0.2%
4,CCCCCc1cc(O)cc(O)c1 [Olivetol],3.2%
5,CCN1C[C@]2(COC)[C@H](O)C[C@H](OC)[C@]34C1[C@H]([C@H](OC)[C@H]23)[C@]1(O)[C@H]2[C@@H](O)[C@](O)(C[C@H]24)[C@@H](OC)[C@@H]1O [Aconine],0.1%
6,CCN1C[C@]2(COC)[C@H](O)C[C@H](OC)[C@@]34[C@@H]5C[C@@]6(O)[C@H](OC(=O)c7ccccc7)[C@@H]5[C@@](O)([C@@H]([C@H](OC)[C@H]23)[C@@H]14)[C@@H](O)[C@@H]6OC [Benzoylaconine],0.2%
7,CCCCOC(=O)c1ccccc1C(=O)OCC(C)C [Butyl isobutyl phthalate],-0.4%
8,COc1cc([C@@H]2c3cc4c(cc3C(=O)[C@H]3COC(=O)[C@H]23)OCO4)cc(OC)c1OC [Podophyllotoxone],4.4%
9,CCN1C[C@]2(COC)CC[C@H](OC)[C@]34C1[C@H]([C@H](OC)[C@H]23)[C@@]1(OC(C)=O)C[C@H](OC)[C@@]2(O)C[C@@H]4[C@@H]1[C@H]2OC(=O)c1ccc(OC)cc1 [Crassicauline A],2.9%
10,C=C1C/C(=C/C)C(=O)O[C@@H]2CCN3CC=C(COC(=O)[C@]1(C)O)[C@H]23 [Seneciphylline],-0.4
11,CO[C@@H]1C[C@H](O[C@H]2CC[C@@]3(C)[C@H](CC[C@@]45O[C@@]46CC[C@H](C4=CC(=O)OC4)[C@@]6(C)CC[C@H]35)C2)O[C@H](C)[C@@H]1O [Adynerin],0.7%
12,COC(=O)C[C@](O)(CCC(C)(C)O)C(=O)O[C@@H]1C(OC)=C[C@]23CCCN2CCc2cc4c(cc2[C@H]13)OCO4 [Harringtonine],3.4%
13,O=C(O)CC[N+](=O)[O-] [3-Nitropropanoic acid],-0.1%
14,O=[N+]([O-])c1ncc[nH]1 [Azomycin],1.1%
15,CO[C@H]1C[C@H](O[C@H]2CC[C@]3(C)[C@H]4CC[C@]5(C)[C@@H](C6=CC(=O)OC6)CC[C@]5(O)[C@@H]4CC[C@]3(O)C2)O[C@H](C)[C@H]1O[C@@H]1O[C@H](CO)[C@@H](O)[C@H](O)[C@H]1O [Periplocin],14.6
16,COC1c2c(ccc3c2OCO3)-c2ccc3cc4c(cc3c2N1C)OCO4 (centres unmarked) [6-Methoxydihydrosanguinarine],-2.9%
17,CCN1C[C@]2(COC)CC[C@H](O)[C@]34C1[C@@](O)([C@@H](OC)[C@H]23)[C@@]1(O)C[C@H](OC)[C@H]2C[C@@H]4[C@@H]1[C@H]2OC [Delsoline],-0.5%
18,"COc1ccccc1OC [1,2-Dimethoxybenzene]",-0.2%
19,COc1cc2ccc(=O)oc2c2ccoc12 [Sphondin],0.1%
20,CCC1CCC(=O)O1 (centres unmarked) [γ-Hexalactone],-0.1%
21,"COc1cc(C=O)cc(OC)c1OC [3,4,5-Trimethoxybenzaldehyde]",-0.3%
22,COC[C@@]12CC[C@H](OC)[C@]34C([C@H]([C@H](OC)[C@H]13)[C@]1(O)[C@H]3[C@@H](OC(=O)c5ccccc5)[C@](O)(C[C@H]34)[C@@H](OC)[C@@H]1O)N(C)C2 [Benzoylhypaconine],0.5%
23,O=C(C[C@@H]1NCCC[C@H]1O)Cn1cnc2ccccc2c1=O [Febrifugine],6.4%
24,COc1cc2c(cc1OC)[C@@H]1C(=O)c3ccc4c(c3O[C@@H]1CO2)CC(C(C)C)O4 (some centres unmarked) [Dihydrorotenone],-0.1%
25,COc1cc2c(cc1OC)[C@@H]1C(=O)c3ccc4c(c3O[C@@H]1CO2)C=CC(C)(C)O4 [Deguelin],-2.2

# 2 entries picked at random from those above:
row,SMILES,OC43 Inhibition rate
8,COc1cc([C@@H]2c3cc4c(cc3C(=O)[C@H]3COC(=O)[C@H]23)OCO4)cc(OC)c1OC [Podophyllotoxone],4.4%
20,CCC1CCC(=O)O1 (centres unmarked) [γ-Hexalactone],-0.1%

# Remaining list, next part.

row,SMILES,OC43 Inhibition rate
1,C[C@H]1CC[C@@H]2N(C1)C[C@H]1[C@@H]3C[C@H]4[C@@H](C[C@@H](O)[C@H]5C[C@@H](O)CC[C@@]54C)[C@@H]3CC[C@@H]1[C@]2(C)O [Isoverticine],11.4%
2,CC(=O)OC(C)(C)/C=C/C(=O)[C@](C)(O)[C@H]1[C@H](O)C[C@@]2(C)[C@@H]3CC=C4[C@@H](C=C(O)C(=O)C4(C)C)[C@]3(C)C(=O)C[C@]12C [Cucurbitacin E],-0.9%
3,CC(C)(O)/C=C/C(=O)[C@](C)(O)[C@H]1[C@H](O)C[C@@]2(C)[C@@H]3CC=C4[C@@H](C[C@H](O)C(=O)C4(C)C)[C@]3(C)C(=O)C[C@]12C [Cucurbitacin D],2.5%
4,CC(C)(O)[C@@H]1[C@H]2OC(=O)[C@@H]1[C@]1(O)C[C@H]3O[C@]34C(=O)O[C@H]2[C@]14C [Picrotin],-0.1%
5,C[C@]12CC[C@H](O)C[C@H]1CC[C@@H]1[C@@H]2CC[C@]2(C)[C@@H](c3ccc(=O)oc3)C[C@H]3O[C@]132 [Resibufogenin],6.7%
6,CC(=O)O[C@H]1C[C@]2(O)[C@@H]3CC[C@@H]4C[C@@H](O)CC[C@]4(C)[C@H]3CC[C@]2(C)[C@H]1c1ccc(=O)oc1 [Bufotalin],-8.2%
7,CC(C)=CCC[C@@](C)(O)[C@H]1CC[C@]2(C)[C@@H]1[C@H](O)C[C@@H]1[C@@]3(C)CC[C@H](O[C@@H]4O[C@H](CO)[C@@H](O)[C@H](O)[C@H]4O)C(C)(C)[C@@H]3CC[C@]12C [20(R)-Ginsenoside Rh2],0%
8,C[C@]12CC[C@H](O)C[C@@]1(O)CC[C@@H]1[C@@H]2CC[C@]2(C)[C@@H](c3ccc(=O)oc3)CC[C@]12O [Telocinobufagin],4.6
9,CCN1C[C@]2(C)CC[C@H](O)[C@]34C1[C@@H](C[C@H]23)[C@@]1(O)C[C@H](OC)[C@H]2C[C@@H]4[C@@H]1[C@H]2O [Karacoline],-0.5%
10,CC(C)=CCC[C@](C)(O)[C@H]1CC[C@]2(C)[C@@H]1[C@H](O)C[C@@H]1[C@@]3(C)CC[C@H](O[C@@H]4O[C@H](CO)[C@@H](O)[C@H](O)[C@H]4O)C(C)(C)[C@@H]3CC[C@]12C [Ginsenoside Rh2],-1.4%
11,N#CCc1ccc(O)cc1 [4-Hydroxybenzyl cyanide],-0.5
12,CC(C)=CCC[C@@](C)(O)[C@H]1CC[C@]2(C)[C@@H]1[C@H](O)C[C@@H]1[C@@]3(C)CC[C@H](O)C(C)(C)[C@@H]3[C@@H](O[C@@H]3O[C@H](CO)[C@@H](O)[C@H](O)[C@H]3O)C[C@]12C [(20R)-Ginsenoside Rh1],-0.3%
13,C=C1[C@H](OC(C)=O)[C@@H](OC(=O)c2ccccc2)[C@@H](OC(C)=O)C(C)(C)[C@H]2O[C@](O)([C@H](C)C2=O)[C@@]2(OC(C)=O)C[C@H](C)[C@H](OC(C)=O)[C@@H]2[C@H]1OC(C)=O [Kansuinine A],1.5%
14,CC1=C2C[C@H]3[C@@H](CC(=O)[C@H]4C[C@@H](O)CC[C@@]43C)[C@@H]2CC[C@]12O[C@@H]1C[C@H](C)CN[C@H]1[C@H]2C [Peimisine],7.6%
15,CC(C)(O)[C@H]1O[C@H]2CC[C@@]3(C)[C@@](O)(CC[C@H]4Cc5c([nH]c6ccccc56)[C@@]43C)C2=CC1=O [Paxilline],5.6%
16,O=C1C=CC[C@@H]2[C@H]3CCC[N+]4([O-])CCC[C@@H](CN12)[C@@H]34 (some centres unmarked) [Oxysophocarpine],-0.3%
17,CNC[C@H](N)C(=O)O [β-N-methylamino-L-alanine (hydrochloride)],0.7%
18,C/C(=C\c1csc(C)n1)[C@@H]1C[C@@H]2O[C@@H]2CCC[C@H](C)[C@H](O)[C@@H](C)C(=O)C(C)(C)[C@@H](O)CC(=O)O1 [Epothilone A],-0.9%
19,CCOC1c2c(ccc3c2OCO3)-c2ccc3cc4c(cc3c2N1C)OCO4 (centres unmarked) [Ethoxysanguinarine],-0.4%
20,COC[C@@]12CC[C@H](OC)[C@@]34[C@@H]5C[C@@]6(O)[C@H](OC(=O)c7ccccc7)[C@@H]5[C@@](OC(C)=O)([C@@H]([C@H](OC)[C@H]13)[C@H]4N(C)C2)[C@@H](O)[C@@H]6OC [Hypaconitine],0%
21,CC1(C)[C@H]2O[C@H]2[C@H]2[C@](C)(O)[C@@H]3CC[C@@H]4[C@@H](O)[C@@]3(C[C@@H](O)[C@@]21O)C[C@@]4(C)O [Rhodojaponin III],-0.8%
22,CC(C)[C@]12CC(=O)[C@H](C)[C@H]1C2 [α-Thujone],2.6%
23,C[C@H](CCC(=O)O)C[C@H](C)C[C@H](C)C(=O)/C=C(\O)[C@H](C)C[C@H](C)C/C=C/[C@@H](C)[C@@H](O)[C@@H](C)[C@@H](O)C[C@@H]1CC[C@@](C)([C@H]2CC[C@@](C)([C@@H](C)O)O2)O1 [Ionomycin (calcium)],-3.3%
24,O=C1C([C@@H]2O[C@H](CO)[C@@H](O)[C@H](O)[C@H]2O)=C(O)/C(=C(O)/C=C/c2ccc(O)cc2)C(=O)C1(O)[C@@H]1O[C@H](CO)[C@@H](O)[C@H](O)[C@H]1O (some centres unmarked) [Hydroxysafflor yellow A],0.2%
25,C[S+](CC[C@H](N)C(=O)[O-])C[C@H]1O[C@@H](n2cnc3c(N)ncnc32)[C@H](O)[C@@H]1O (stereo partly drawn) [S-Adenosyl-L-methionine (disulfate tosylate)],-2.9%
